The supplement of paper PMC4604168 (melanoma cell lines)
The list shows a part of the results. Repeats are few or missing, and single values can be far off.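 Cells were imaged in 1,536-well plates, and nuclei stained with an antibody against cleaved PARP were counted against all DNA-stained nuclei to give the apoptosis fraction. Screening doses were chosen to leave most cells alive, and resting and induced cleaved-PARP levels differ strongly between cell lines.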

What was measured:
Assay in all cases: cleaved PARP positive nuclei fraction relative to DMSO control; melanoma cells; higher = more apoptosis
Conditions in all cases: library dose: low library concentration; 72 h
MZ2-MEL = test system: MZ2-MEL
MeWo = test system: MeWo
RPMI7951 = test system: RPMI7951
RVH-421 = test system: RVH-421
SkMel28 = test system: SkMel28
SkMel2 = test system: SkMel2
SkMel30 = test system: SkMel30
UACC62 = test system: UACC62
WM115 = test system: WM115
WM1716 = test system: WM1716
WM1745 = test system: WM1745
WM3526 = test system: WM3526
WM3619 = test system: WM3619
WM451Lu = test system: WM451Lu

Row | SMILES | cleaved PARP positive nuclei fraction (MZ2-MEL) [%] | cleaved PARP positive nuclei fraction (MeWo) [%] | cleaved PARP positive nuclei fraction (RPMI7951) [%] | cleaved PARP positive nuclei fraction (RVH-421) [%] | cleaved PARP positive nuclei fraction (SkMel28) [%] | cleaved PARP positive nuclei fraction (SkMel2) [%] | cleaved PARP positive nuclei fraction (SkMel30) [%] | cleaved PARP positive nuclei fraction (UACC62) [%] | cleaved PARP positive nuclei fraction (WM115) [%] | cleaved PARP positive nuclei fraction (WM1716) [%] | cleaved PARP positive nuclei fraction (WM1745) [%] | cleaved PARP positive nuclei fraction (WM3526) [%] | cleaved PARP positive nuclei fraction (WM3619) [%] | cleaved PARP positive nuclei fraction (WM451Lu) [%]
1 | CCCCCCCCCCCCCCCCCCOP(=O)([O-])OC1CC[N+](C)(C)CC1 [Perifosine] + Cc1ccc(Nc2nccc(N(C)c3ccc4c(C)n(C)nc4c3)n2)cc1S(N)(=O)=O [Pazopanib] (first compound 0.4 µM, partner dose 0.4 µM) | 68.8 | 68.5 | 280 | 67.5 | 77.4 | 49.2 | 44.7 | 82.3 | 101 | 103 | 95.8 | 122 | 111 | 96.8
2 | CCCCCCCCCCCCCCCCCCOP(=O)([O-])OC1CC[N+](C)(C)CC1 [Perifosine] + CN1CCN(c2ccc3nc(-c4c(N)c5c(F)cccc5[nH]c4=O)[nH]c3c2)CC1 [Dovitinib] (first compound 0.4 µM, partner dose 0.1 µM) | 34.3 | 41.8 | 453 | 59.6 | 86.6 | 62.4 | 134 | 30.1 | 76.9 | 34.8 | 104 | 63 | 123 | 40
3 | COc1cc([C@@H]2c3cc4c(cc3[C@@H](O[C@@H]3O[C@@H]5CO[C@@H](C)O[C@H]5[C@H](O)[C@H]3O)[C@H]3COC(=O)[C@H]23)OCO4)cc(OC)c1O [etoposide] + CC(=O)O[C@@]12CO[C@@H]1C[C@H](O)[C@@]1(C)C(=O)[C@H](O)C3=C(C)[C@@H](OC(=O)[C@H](O)[C@@H](NC(=O)OC(C)(C)C)c4ccccc4)C[C@@](O)([C@@H](OC(=O)c4ccccc4)[C@H]21)C3(C)C [Docetaxel] (first compound 0.02 µM, partner dose 0.0001 µM) | 267 | 767 | 135 | 405 | 283 | 394 | 288 | 237 | 289 | 610 | 108 | 681 | 109 | 150
4 | CC[C@]1(O)C[C@H]2CN(CCc3c([nH]c4ccccc34)[C@@](C(=O)OC)(c3cc4c(cc3OC)N(C=O)[C@H]3[C@@](O)(C(=O)OC)[C@H](OC(C)=O)[C@]5(CC)C=CCN6CC[C@]43[C@@H]65)C2)C1 [vincristine] + C=CCNC1=C2C[C@@H](C)C[C@H](OC)[C@H](O)[C@@H](C)/C=C(\C)[C@H](OC(N)=O)[C@@H](OC)/C=C\C=C(/C)C(=O)NC(=CC1=O)C2=O [Tanespimycin] (first compound 0.0001 µM, partner dose 0.002 µM) | 135 | 195 | 46 | 131 | 81.2 | 62.8 | 148 | 242 | 637 | 178 | 104 | 82.9 | 211 | 83.3
5 | O=C(/C=C/c1cccnc1)NCCCCC1CCN(C(=O)c2ccccc2)CC1 + COc1ccc(Cl)c(Nc2nc3ccccc3nc2NS(=O)(=O)c2cccc(NC(=O)C(C)(C)N)c2)c1 [XL147] (first compound 0.01 µM, partner dose 0.8 µM) | 454 | 84.7 | 36 | 185 | 244 | 4790 | 59.7 | 90.9 | 40.4 | 99.4 | 93.9 | 70.9 | 116 | 64.3
6 | CCCCCCCCCCCCCCCCCCOP(=O)([O-])OC1CC[N+](C)(C)CC1 [Perifosine] + O=C(O)c1ccc2c(c1)nc(Nc1cccc(Cl)c1)c1ccncc12 [CX4945] (first compound 0.4 µM, partner dose 0.4 µM) | 109 | 256 | 592 | 53.7 | 148 | 101 | 120 | 106 | 111 | 434 | 87 | 89.9 | 91.4 | 88
7 | N#CC[C@H](C1CCCC1)n1cc(-c2ncnc3[nH]ccc23)cn1 [ruxolitinib] + Clc1ccc(Nc2nnc(Cc3ccncc3)c3ccccc23)cc1 [vatalanib] (first compound 1 µM, partner dose 2 µM) | 101 | 175 | 49.5 | 29.1 | 166 | 101 | 58.6 | 109 | 157 | 37.3 | 106 | 17.5 | 95.8 | 51.9
8 | O=C(Nc1cc(C(F)(F)F)cc(C(F)(F)F)c1)c1cc(Cl)ccc1O + COc1ccc(Cl)c(Nc2nc3ccccc3nc2NS(=O)(=O)c2cccc(NC(=O)C(C)(C)N)c2)c1 [XL147] (first compound 0.016 µM, partner dose 0.8 µM) | 36.2 | 57.5 | 30.3 | 79.8 | 41.1 | 69 | 97.2 | 105 | 81.8 | 189 | 96.2 | 44.2 | 82.8 | 86.2
9 | Cc1cc(Nc2cc(N3CCN(C)CC3)nc(Sc3ccc(NC(=O)C4CC4)cc3)n2)n[nH]1 [Tozasertib] + Cc1cn(-c2cc(NC(=O)c3ccc(C)c(Nc4nccc(-c5cccnc5)n4)c3)cc(C(F)(F)F)c2)cn1 [nilotinib] (first compound 0.006 µM, partner dose 0.2 µM) | 88.6 | 193 | 103 | 160 | 78 | 65.6 | 66.9 | 88.1 | 47 | 152 | 124 | 103 | 77 | 41.1
10 | Cc1cc(Nc2cc(N3CCN(C)CC3)nc(Sc3ccc(NC(=O)C4CC4)cc3)n2)n[nH]1 [Tozasertib] + CN(c1ncccc1CNc1nc(Nc2ccc3c(c2)CC(=O)N3)ncc1C(F)(F)F)S(C)(=O)=O [PF562271] (first compound 0.006 µM, partner dose 0.08 µM) | 103 | 129 | 125 | 48.5 | 83.9 | 107 | 119 | 57.5 | 116 | 85.2 | 115 | 43.7 | 88.9 | 56.1
11 | Cc1cc(Nc2cc(N3CCN(C)CC3)nc(Sc3ccc(NC(=O)C4CC4)cc3)n2)n[nH]1 [Tozasertib] + Clc1ccc(Nc2nnc(Cc3ccncc3)c3ccccc23)cc1 [vatalanib] (first compound 0.006 µM, partner dose 2 µM) | 68 | 117 | 122 | 101 | 42.3 | 82.9 | 166 | 92.7 | 177 | 41.3 | 111 | 45.4 | 205 | 48.4
12 | Cc1cn(-c2cc(NC(=O)c3ccc(C)c(Nc4nccc(-c5cccnc5)n4)c3)cc(C(F)(F)F)c2)cn1 [nilotinib] + Cn1cnc2c(F)c(Nc3ccc(Br)cc3Cl)c(C(=O)NOCCO)cc21 [selumetinib] (first compound 0.2 µM, partner dose 0.015 µM) | 94.6 | 66.7 | 68.6 | 52.6 | 87.1 | 104 | 41.6 | 55.8 | 116 | 31.2 | 109 | 81 | 213 | 37.2
13 | O=C(/C=C/c1cccnc1)NCCCCC1CCN(C(=O)c2ccccc2)CC1 + Cn1sc(=O)n(Cc2ccccc2)c1=O [TDZD-8] (first compound 0.01 µM, partner dose 0.4 µM) | 336 | 119 | 228 | 135 | 75.6 | 2290 | 64.3 | 149 | 107 | 106 | 82.1 | 72.8 | 88.4 | 168
14 | O=c1[nH]nc(Sc2ncc([N+](=O)[O-])s2)n1-c1ccc2c(c1)OCCO2 + NC1(c2ccc(-c3nc4ccn5c(=O)[nH]nc5c4cc3-c3ccccc3)cc2)CCC1 [MK2206] (first compound 0.2 µM, partner dose 0.4 µM) | 97 | 117 | 134 | 40 | 268 | 99.7 | 54.6 | 196 | 160 | 33.2 | 97.4 | 77.3 | 108 | 182
15 | Cc1cn(-c2cc(NC(=O)c3ccc(C)c(Nc4nccc(-c5cccnc5)n4)c3)cc(C(F)(F)F)c2)cn1 [nilotinib] + OCc1c[nH]c2ccccc12 [Indole-3-carbinol] (first compound 0.2 µM, partner dose 0.8 µM) | 145 | 311 | 28.7 | 164 | 68.5 | 205 | 67.4 | 254 | 93.7 | 913 | 110 | 73.6 | 95.6 | 39.2
16 | O=C(Nc1cc(C(F)(F)F)cc(C(F)(F)F)c1)c1cc(Cl)ccc1O + Cc1cn(-c2cc(NC(=O)c3ccc(C)c(Nc4nccc(-c5cccnc5)n4)c3)cc(C(F)(F)F)c2)cn1 [nilotinib] (first compound 0.016 µM, partner dose 0.2 µM) | 99.3 | 22.8 | 106 | 91.3 | 140 | 88.7 | 95.3 | 151 | 119 | 282 | 102 | 75.6 | 82.2 | 93.8
17 | O=C(Nc1cc(C(F)(F)F)cc(C(F)(F)F)c1)c1cc(Cl)ccc1O + C#Cc1cccc(Nc2ncnc3cc(OCCOC)c(OCCOC)cc23)c1 [erlotinib] (first compound 0.016 µM, partner dose 0.8 µM) | 142 | 148 | 88.4 | 90 | 174 | 99.2 | 167 | 114 | 65.8 | 136 | 203 | 47.8 | 105 | 77.8
18 | N#CC[C@H](C1CCCC1)n1cc(-c2ncnc3[nH]ccc23)cn1 [ruxolitinib] + CC(=O)O[C@@]12CO[C@@H]1C[C@H](O)[C@@]1(C)C(=O)[C@H](O)C3=C(C)[C@@H](OC(=O)[C@H](O)[C@@H](NC(=O)OC(C)(C)C)c4ccccc4)C[C@@](O)([C@@H](OC(=O)c4ccccc4)[C@H]21)C3(C)C [Docetaxel] (first compound 1 µM, partner dose 0.0001 µM) | 296 | 573 | 140 | 110 | 53.5 | 560 | 236 | 1110 | 292 | 196 | 152 | 64.5 | 169 | 47.8

2 entries picked at random from those above:
Row | SMILES | cleaved PARP positive nuclei fraction (MZ2-MEL) [%] | cleaved PARP positive nuclei fraction (MeWo) [%] | cleaved PARP positive nuclei fraction (RPMI7951) [%] | cleaved PARP positive nuclei fraction (RVH-421) [%] | cleaved PARP positive nuclei fraction (SkMel28) [%] | cleaved PARP positive nuclei fraction (SkMel2) [%] | cleaved PARP positive nuclei fraction (SkMel30) [%] | cleaved PARP positive nuclei fraction (UACC62) [%] | cleaved PARP positive nuclei fraction (WM115) [%] | cleaved PARP positive nuclei fraction (WM1716) [%] | cleaved PARP positive nuclei fraction (WM1745) [%] | cleaved PARP positive nuclei fraction (WM3526) [%] | cleaved PARP positive nuclei fraction (WM3619) [%] | cleaved PARP positive nuclei fraction (WM451Lu) [%]
17 | O=C(Nc1cc(C(F)(F)F)cc(C(F)(F)F)c1)c1cc(Cl)ccc1O + C#Cc1cccc(Nc2ncnc3cc(OCCOC)c(OCCOC)cc23)c1 [erlotinib] (first compound 0.016 µM, partner dose 0.8 µM) | 142 | 148 | 88.4 | 90 | 174 | 99.2 | 167 | 114 | 65.8 | 136 | 203 | 47.8 | 105 | 77.8
9 | Cc1cc(Nc2cc(N3CCN(C)CC3)nc(Sc3ccc(NC(=O)C4CC4)cc3)n2)n[nH]1 [Tozasertib] + Cc1cn(-c2cc(NC(=O)c3ccc(C)c(Nc4nccc(-c5cccnc5)n4)c3)cc(C(F)(F)F)c2)cn1 [nilotinib] (first compound 0.006 µM, partner dose 0.2 µM) | 88.6 | 193 | 103 | 160 | 78 | 65.6 | 66.9 | 88.1 | 47 | 152 | 124 | 103 | 77 | 41.1
